The assay deals with Kinesin family member 5B (human (endogenous in A549 and SK-N-BE(2)C)) (UniProt P33176). Description: affinity purification with mass spectrometry; total protein of A549 cells incubated with the antibody against KIF5B; IgG isotype control; Dynabeads Protein A; nano-LC-MS/MS.

By UniProt entry, the sequences of proteins in these tests, tags left out.
UniProt P33176: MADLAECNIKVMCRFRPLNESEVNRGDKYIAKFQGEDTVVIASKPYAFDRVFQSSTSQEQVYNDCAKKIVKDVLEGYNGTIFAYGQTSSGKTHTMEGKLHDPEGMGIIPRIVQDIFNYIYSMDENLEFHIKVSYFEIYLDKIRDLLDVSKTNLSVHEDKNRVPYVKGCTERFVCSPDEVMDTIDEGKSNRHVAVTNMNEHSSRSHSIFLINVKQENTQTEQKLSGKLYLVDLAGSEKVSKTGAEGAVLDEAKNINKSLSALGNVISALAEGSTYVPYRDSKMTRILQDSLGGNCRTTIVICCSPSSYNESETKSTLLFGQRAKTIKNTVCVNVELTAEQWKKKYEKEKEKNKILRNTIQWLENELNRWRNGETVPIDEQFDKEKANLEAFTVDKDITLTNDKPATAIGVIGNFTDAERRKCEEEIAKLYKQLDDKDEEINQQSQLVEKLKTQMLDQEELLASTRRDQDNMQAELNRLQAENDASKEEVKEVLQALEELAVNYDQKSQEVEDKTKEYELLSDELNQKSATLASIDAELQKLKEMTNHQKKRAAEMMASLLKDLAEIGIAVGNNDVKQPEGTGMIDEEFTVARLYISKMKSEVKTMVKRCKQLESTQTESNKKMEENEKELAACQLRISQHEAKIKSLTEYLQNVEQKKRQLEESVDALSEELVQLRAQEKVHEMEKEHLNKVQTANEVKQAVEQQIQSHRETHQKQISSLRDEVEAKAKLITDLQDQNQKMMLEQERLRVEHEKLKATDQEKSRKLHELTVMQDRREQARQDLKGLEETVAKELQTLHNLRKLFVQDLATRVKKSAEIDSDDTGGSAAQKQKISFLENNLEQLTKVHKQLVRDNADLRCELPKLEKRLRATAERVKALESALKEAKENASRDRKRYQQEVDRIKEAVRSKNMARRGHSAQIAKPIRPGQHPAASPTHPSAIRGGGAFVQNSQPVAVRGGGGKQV
UniProt O00429: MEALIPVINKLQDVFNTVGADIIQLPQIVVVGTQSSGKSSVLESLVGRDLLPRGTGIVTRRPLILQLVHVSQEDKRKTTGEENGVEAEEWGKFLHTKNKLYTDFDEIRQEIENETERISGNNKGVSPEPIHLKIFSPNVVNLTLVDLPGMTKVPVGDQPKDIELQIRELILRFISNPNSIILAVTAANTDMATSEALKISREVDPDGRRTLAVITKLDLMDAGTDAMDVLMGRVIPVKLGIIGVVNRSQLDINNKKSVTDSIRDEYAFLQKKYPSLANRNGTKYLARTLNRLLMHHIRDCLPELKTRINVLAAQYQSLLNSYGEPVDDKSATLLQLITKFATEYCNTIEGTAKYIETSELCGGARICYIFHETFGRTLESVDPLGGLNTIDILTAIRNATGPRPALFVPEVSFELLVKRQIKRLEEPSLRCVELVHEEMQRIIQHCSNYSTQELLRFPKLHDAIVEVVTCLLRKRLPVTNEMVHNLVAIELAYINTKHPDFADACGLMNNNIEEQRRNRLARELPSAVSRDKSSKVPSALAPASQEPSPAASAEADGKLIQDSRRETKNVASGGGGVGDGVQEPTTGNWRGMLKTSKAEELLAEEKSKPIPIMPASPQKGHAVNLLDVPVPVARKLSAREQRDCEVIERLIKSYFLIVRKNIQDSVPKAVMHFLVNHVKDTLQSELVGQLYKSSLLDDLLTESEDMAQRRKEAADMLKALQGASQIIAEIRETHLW

The record followed here is article PMC10113393.

No constants are given. Whether binding was seen depends on the method and setting. Binding seen in cells or lysates may run through a third protein. Here binding means that the protein was enriched with, or labelled near, the bait; the list need not be complete.

As to “GTPase dynamin-related protein 1 (from UniProt O00429 1-736)”, the binding entry is listed as “binds”.
